# From the supplement of paper PMC3334620
# In all, about 33,000 sequences were measured (“E-score (-0.5 to 0.5)”: median about -0.0014, highest 2% from about 0.25 on). This is one part of the list.
# Biological target: T1, Cad1 (UniProt P24813)
# T1 sequence: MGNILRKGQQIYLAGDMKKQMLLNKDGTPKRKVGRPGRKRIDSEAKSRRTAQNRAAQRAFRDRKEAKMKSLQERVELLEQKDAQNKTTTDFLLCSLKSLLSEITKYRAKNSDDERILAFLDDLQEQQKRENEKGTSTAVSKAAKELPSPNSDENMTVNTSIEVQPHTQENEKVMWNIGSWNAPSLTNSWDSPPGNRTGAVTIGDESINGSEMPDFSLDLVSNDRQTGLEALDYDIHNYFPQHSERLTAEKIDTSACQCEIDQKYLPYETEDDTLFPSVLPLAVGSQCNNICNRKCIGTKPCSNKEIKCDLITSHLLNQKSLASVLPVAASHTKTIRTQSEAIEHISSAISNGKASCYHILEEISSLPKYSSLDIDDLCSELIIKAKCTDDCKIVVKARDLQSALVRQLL
# Test: PBM E-score (8-mer binding enrichment) (E-score (-0.5 to 0.5)); higher = stronger / more preferred TF binding
# Conditions: protein concentration: 100 nM; construct: GST-full length
# Outline: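 The E-score, a modified Wilcoxon-Mann-Whitney statistic, was computed by the Universal PBM Analysis Suite for every ungapped eight-base word pooled with its reverse complement. Scans behind it were normalised with masliner after bound GST-tagged yeast transcription factors were detected with fluorescent anti-GST. The proteins, at about 100-200 nM, had been applied to universal all-10-mer Agilent arrays made double-stranded by primer extension.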
row,Sequence,PBM E-score
1,CTGTCGTA,-0.188
2,CGATATAC,-0.00158
3,GGTCCCTA,-0.242
4,GACGCGTC,0.0124
5,CGGCTAAA,-0.0162
6,ACTAGAAG,-0.175
7,GTTCCGTA,0.226
8,AGGATGCG,-0.0999
9,AAAAAGAT,0.0116
10,AGGAAGTA,-0.0785
11,CTCCCCGC,0.0619
12,AACATGCG,0.0846
13,CCTAACGA,-0.0196
14,AAAAGGGA,-0.24
15,AAACACTA,0.162
16,GTATACCA,-0.0671
17,GGCCCCGA,-0.124
18,GAACCAGA,-0.0574
19,AGATAGAG,0.0226
20,CAAGTTCC,-0.0154
21,AAGTAGCG,-0.115
22,CGGTCAAG,-0.0739
23,ACGCATCA,0.133
24,CAGTTGAA,-0.0352
25,ACTGTAAC,-0.0789

row,Sequence,PBM E-score
1,CGGGTGCC,-0.161
2,AGTTTTAC,0.109
3,CTTGACCA,-0.19
4,CGCGTTGC,0.185
5,ATGGCACC,-0.0307
6,ACGTGGTG,-0.107
7,TGTTTGAA,0.106
8,AGAATTCG,0.051
9,GGGGGTCA,-0.432
10,CCCACGGG,-0.247
11,ACCAGTGC,-0.146
12,AAGTGAGT,0.0529
13,CGGTAAGA,0.0804
14,GTGCACTA,0.242
15,GCTGTCAA,0.0138
16,AAGGAAGG,-0.134
17,TCAGAACA,0.0782
18,CACTAGTC,-0.0178
19,CAAGCTCC,-0.285
20,AACTGTGC,-0.0663
21,GGCACCAC,-0.0955
22,AATTCCCT,-0.0367
23,CATTGCGC,0.134
24,ATAGACCA,0.0503
25,TCCCCAGA,-0.109

row,Sequence,PBM E-score
1,ATCACCGA,0.12
2,GCGAGTAA,0.147
3,TAAGTATA,0.221
4,AGGCGCCC,-0.218
5,CGACAGTA,0.0498
6,ACAAAGTA,0.193
7,AGTACATC,-0.0878
8,AACACACC,0.18
9,ATATTGCC,-0.0802
10,CGGCTGGA,-0.143
11,ACGCCCAA,-0.142
12,AAAGTAAC,0.0974
13,ACCTCTAG,-0.147
14,AGTGAATA,0.0196
15,GGCGCAAC,0.0646
16,AGTAATAC,0.21
17,CAGTGGGA,-0.203
18,GGGTTGGA,-0.0426
19,CATCAAAC,-0.0197
20,AAATAGTG,0.258
21,CCCACAAA,0.0628
22,CTTACGGA,0.0215
23,CGGAGAAG,-0.0467
24,GACTGGAA,-0.168
25,AGTAAGAT,0.0748

# In a second layout: results already given
row | Sequence | PBM E-score
17 | CAGTGGGA | -0.203
18 | GGGTTGGA | -0.0426
19 | CATCAAAC | -0.0197
20 | AAATAGTG | 0.258

# (list continues)

row,Sequence,PBM E-score
1,CTCCTGGC,-0.0344
2,AACTCTCA,0.135
3,GGTTGTTA,0.102
4,CGAACCAG,0.142
5,AATGCAAT,-0.154
6,CCCTGTCA,-0.131
7,ATCGAGCG,0.156
8,AGGGCAGA,-0.132
9,ACCCTGGA,-0.152
10,TCTACCAA,0.128
11,AGTACCCG,-0.045
12,ACGGTTGA,-0.0175
13,AAAATTCA,0.284
14,CAAAGGTC,-0.202
15,GATCTACA,0.0317
16,ACAGACCT,0.206
17,GGGAACGA,0.0191
18,AGTCTTCG,0.043
19,AATCGGAT,0.283
20,CCAGTCGA,-0.0359
21,GCGTGCTA,-0.114
22,ATAGATGG,-0.259
23,CTGCTCTA,-0.00251
24,CATGTTCC,-0.00232
25,CACCTATG,-0.18

row,Sequence,PBM E-score
1,ACCTGTCA,-0.0819
2,ACACCTAG,-0.123
3,CGGCACGA,0.0949
4,CGGTAGTA,-0.0186
5,CCAGTCTA,-0.0582
6,GCTTGTGA,-0.0693
7,CAATTATA,0.161
8,CGCCTTTA,0.0567
9,AAATCTAC,0.0177
10,GCTGCCTA,-0.0988
11,ACGGGTGC,-0.0882
12,AAAATAGT,0.118
13,ATCTCGTC,0.0718
14,CCACTGCG,0.0354
15,AGCCCAAG,-0.159
16,CAGTGTTC,0.176
17,AAATCTGT,0.131
18,CCTGATAC,0.153
19,GAGCGGCC,-0.145
20,ACAAGCGA,0.08
21,AGGTCCAC,-0.258
22,GATCTCTA,-0.00974
23,CCTTCGAC,-0.0612
24,CACGCTGC,-0.0829
25,ACTTAACG,-0.0498

# Another view of some results above.
row	Sequence	PBM E-score
18	CCTGATAC	0.153
19	GAGCGGCC	-0.145
20	ACAAGCGA	0.08
21	AGGTCCAC	-0.258
22	GATCTCTA	-0.00974
23	CCTTCGAC	-0.0612
24	CACGCTGC	-0.0829

# The results go on:

row,Sequence,PBM E-score
1,CAAGAGGC,-0.213
2,ATGTTCGC,0.0108
3,AAAGCGGT,-0.0418
4,GATCCATC,-0.0996
5,AATCAATA,0.00906
6,CATTGGGA,-0.0639
7,ACCGTTCG,0.139
8,CATCAGCA,0.01
9,CGTGGCTA,-0.0782
10,CCCCGGTC,-0.303
11,ACGAAGAC,-0.236
12,CGCTCTGA,0.116
13,AACGAACC,0.134
14,TACAGTCA,0.0998
15,CCCCTCCG,-0.0749
16,AACCAATA,-0.014
17,AAGTGTTG,0.147
18,ATCATTAA,0.171
19,ACAGCGAA,0.0806
20,TGAGAGCA,0.00881
21,TGCCCCCA,-0.294
22,CCAGTTGC,-0.213
23,AATATATG,0.236
24,AATTTTCT,0.149
25,AACAGTCT,-0.0949

row,Sequence,PBM E-score
1,GATCTAAC,0.167
2,AGTACTCC,-0.103
3,CGTCAGCA,0.218
4,ACACGGGC,-0.114
5,ACACTGAC,0.0777
6,ATAAATCC,0.0761
7,AACAAAGT,0.191
8,CCCGATTC,0.00427
9,ATTTGAAC,0.0764
10,CGCCGAGA,-0.102
11,CCCGCCAC,0.118
12,AAAGGGCG,-0.0326
13,TACGCCAA,-0.237
14,CGATACAC,0.00183
15,CTTCGTCA,-0.00441
16,AATCAAAT,0.074
17,ACCAGAAC,0.0293
18,ATTTAACA,0.193
19,AGAAAGGA,-0.165
20,CGCGTCAG,-0.0418
21,GAGAGGAA,-0.15
22,ATACTCAT,-0.114
